According to doi:10.1101/094961 (bioRxiv, 2017):
No constants are given. Whether binding was seen depends on the method and setting. In cells and extracts the contact can be indirect. Some binding calls cover weakened binding; strength is not graded here.

Protein sequences, listed by entry. Tags and fused reporters are not part of them.
UniProt Q06796: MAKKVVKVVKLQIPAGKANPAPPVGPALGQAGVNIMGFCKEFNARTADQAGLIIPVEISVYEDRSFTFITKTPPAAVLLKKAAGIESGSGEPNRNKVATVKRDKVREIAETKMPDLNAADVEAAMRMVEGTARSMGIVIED
UniProt P37871: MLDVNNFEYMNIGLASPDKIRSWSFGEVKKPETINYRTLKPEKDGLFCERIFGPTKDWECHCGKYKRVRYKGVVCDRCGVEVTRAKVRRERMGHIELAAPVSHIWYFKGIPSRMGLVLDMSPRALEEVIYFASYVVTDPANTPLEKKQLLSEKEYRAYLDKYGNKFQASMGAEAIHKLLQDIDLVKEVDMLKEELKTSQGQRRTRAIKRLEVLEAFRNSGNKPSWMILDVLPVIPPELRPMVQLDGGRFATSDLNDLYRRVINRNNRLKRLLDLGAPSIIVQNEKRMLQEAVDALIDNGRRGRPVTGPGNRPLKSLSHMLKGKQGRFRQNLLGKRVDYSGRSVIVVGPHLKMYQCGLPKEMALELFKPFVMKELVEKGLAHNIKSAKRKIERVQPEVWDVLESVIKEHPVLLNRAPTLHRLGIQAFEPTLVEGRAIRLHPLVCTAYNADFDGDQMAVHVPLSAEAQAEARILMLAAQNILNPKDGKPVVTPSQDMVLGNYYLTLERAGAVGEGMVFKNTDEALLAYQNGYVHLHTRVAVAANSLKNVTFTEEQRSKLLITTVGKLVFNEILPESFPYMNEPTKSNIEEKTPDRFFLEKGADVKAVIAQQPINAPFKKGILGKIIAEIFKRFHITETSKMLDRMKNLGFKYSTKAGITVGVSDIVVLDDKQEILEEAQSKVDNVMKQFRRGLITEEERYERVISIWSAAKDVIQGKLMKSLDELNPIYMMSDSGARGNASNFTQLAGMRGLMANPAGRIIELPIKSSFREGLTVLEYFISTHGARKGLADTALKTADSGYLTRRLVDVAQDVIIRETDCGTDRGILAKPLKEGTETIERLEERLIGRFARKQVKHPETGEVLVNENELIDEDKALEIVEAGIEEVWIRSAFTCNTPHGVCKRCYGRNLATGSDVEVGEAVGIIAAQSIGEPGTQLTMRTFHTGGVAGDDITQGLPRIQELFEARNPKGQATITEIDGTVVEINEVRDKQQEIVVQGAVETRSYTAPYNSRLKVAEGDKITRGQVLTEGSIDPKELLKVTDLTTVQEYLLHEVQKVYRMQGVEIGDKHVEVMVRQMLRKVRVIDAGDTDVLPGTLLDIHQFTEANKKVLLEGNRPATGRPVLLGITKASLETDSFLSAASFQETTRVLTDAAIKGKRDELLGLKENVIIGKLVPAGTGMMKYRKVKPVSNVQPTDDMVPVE
UniProt P37870: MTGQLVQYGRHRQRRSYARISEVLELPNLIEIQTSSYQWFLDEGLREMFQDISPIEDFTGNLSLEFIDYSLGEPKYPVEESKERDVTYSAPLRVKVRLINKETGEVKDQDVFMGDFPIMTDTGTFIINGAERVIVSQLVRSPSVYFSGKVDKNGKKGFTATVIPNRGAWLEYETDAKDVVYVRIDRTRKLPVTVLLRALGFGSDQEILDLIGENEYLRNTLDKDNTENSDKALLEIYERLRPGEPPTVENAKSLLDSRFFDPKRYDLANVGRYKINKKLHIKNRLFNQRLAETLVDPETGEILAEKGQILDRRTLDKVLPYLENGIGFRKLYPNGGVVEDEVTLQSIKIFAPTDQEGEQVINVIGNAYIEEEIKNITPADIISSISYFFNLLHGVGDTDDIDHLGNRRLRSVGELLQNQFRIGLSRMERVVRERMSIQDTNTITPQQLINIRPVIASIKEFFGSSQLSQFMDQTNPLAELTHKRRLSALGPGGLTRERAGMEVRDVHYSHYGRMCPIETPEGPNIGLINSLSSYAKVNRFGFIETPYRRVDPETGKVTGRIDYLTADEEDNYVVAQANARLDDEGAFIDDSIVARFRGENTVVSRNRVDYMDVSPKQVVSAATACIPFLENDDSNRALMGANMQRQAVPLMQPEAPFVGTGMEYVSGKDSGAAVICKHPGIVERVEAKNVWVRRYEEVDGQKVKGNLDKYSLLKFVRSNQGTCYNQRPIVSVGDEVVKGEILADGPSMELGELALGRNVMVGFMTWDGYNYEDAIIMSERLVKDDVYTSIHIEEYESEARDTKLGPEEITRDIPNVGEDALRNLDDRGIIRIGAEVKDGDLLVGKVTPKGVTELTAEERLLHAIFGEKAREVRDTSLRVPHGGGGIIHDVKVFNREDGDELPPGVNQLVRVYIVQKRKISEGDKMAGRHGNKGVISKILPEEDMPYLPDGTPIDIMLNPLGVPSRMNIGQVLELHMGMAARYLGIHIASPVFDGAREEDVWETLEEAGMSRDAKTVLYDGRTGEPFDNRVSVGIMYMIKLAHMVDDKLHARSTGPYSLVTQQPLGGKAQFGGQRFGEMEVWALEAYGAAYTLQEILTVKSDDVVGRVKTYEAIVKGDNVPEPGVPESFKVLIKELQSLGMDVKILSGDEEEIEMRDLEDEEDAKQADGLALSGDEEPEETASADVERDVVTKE

Experiments:
Experiment in all cases: cross-linking
[1] = target: ribosomal protein RL11 (B. subtilis (endogenous in strain 168)) (UniProt Q06796)
[2] = target: RNAP β' subunit (RpoC) (B. subtilis (endogenous in strain 168)) (UniProt P37871)
[3] = target: RNA polymerase β subunit (B. subtilis (endogenous in strain 168)) (UniProt P37870)
[4] = target: T1, transcription elongation factor NusA (B. subtilis (endogenous in strain 168)) (UniProt P32727)
T1 sequence: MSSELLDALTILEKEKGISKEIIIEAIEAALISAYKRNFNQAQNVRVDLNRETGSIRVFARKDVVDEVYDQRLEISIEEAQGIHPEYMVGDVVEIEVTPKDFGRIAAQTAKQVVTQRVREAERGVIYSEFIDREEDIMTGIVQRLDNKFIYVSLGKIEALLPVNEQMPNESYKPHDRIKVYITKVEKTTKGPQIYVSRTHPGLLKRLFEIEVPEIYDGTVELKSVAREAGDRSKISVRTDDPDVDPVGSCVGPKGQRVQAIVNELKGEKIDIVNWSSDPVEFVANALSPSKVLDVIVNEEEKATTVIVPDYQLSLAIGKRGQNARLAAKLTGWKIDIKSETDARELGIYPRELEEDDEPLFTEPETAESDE

B1: Ribosome-recycling factor RRF (protein, UniProt P81101 1-185)
chain: MSKEVLTQTKEKMEKAIAAYQRELATVRAGRANPSLLDKVTVEYYGAQTPLNQLSSINVPEARMLVITPYDKTAIGDIEKAILKADLGLTPTSDGNMIRIAIPALTEERRKELVKVVKKYAEEAKVAVRNVRRDANDDLKKLEKNGDITEDELRASTEDVQKLTDEYVSKIDSVTKDKEKEIMEV
binding [1]: binds

B2: transcription elongation factor GreA (protein, UniProt P80240 1-157)
chain: MAQEKVFPMTAEGKQKLEQELEYLKTVKRKEVVERIKIARSFGDLSENSEYDSAKEEQAFVEGRVTTLENMIRNAKIIEDDGGSNVVGLGKTVTFVELPDGDEESYTIVGSAEADPFEGKISNDSPIAKSLLGKKVDEEVTVQTPGGEMLVKIVKIS
binding [2]: binds
binding [3]: binds

B3: transcription elongation factor NusA (protein, UniProt P32727 1-371)
chain: T1 sequence
binding [3]: binds

B4: glutamate dehydrogenase GudB (protein, UniProt P50735 1-427)
chain: MAADRNTGHTEEDKLDVLKSTQTVIHKALEKLGYPEEVYELLKEPMRLLTVKIPVRMDDGSVKIFTGYRAQHNDSVGPTKGGIRFHPNVTEKEVKAVKALSIWMSLKCGIIDLPYGGGKGGIVCDPRDMSFRELERLSRGYVRAISQIVGPTKDVPAPDVFTNSQIMAWMMDEYSRIDEFNSPGFITGKPLVLGGSHGRESATAKGVTICIKEAAKKRGIDIKGARVVVQGFGNAGSYLAKFMHDAGAKVVGISDAYGGLYDPEGLDIDYLLDRRDSFGTVTKLFNDTITNQELLELDCDILVPAAIENQITEENAHNIRAKIVVEAANGPTTLEGTKILSDRDILLVPDVLASAGGVTVSYFEWVQNNQGFYWSEEEVEEKLEKMMVKSFNNIYEMANNRRIDMRLAAYMVGVRKMAEASRFRGWI
binding [4]: binds
